# Patent US9408925B2, “Hyperpolarized lactate contrast agent for determination of LDH activity” (GE Healthcare Limited, priority 2010, dated 2016)
# Tested on: EL4 lymphoma tumors
# Assay: T2 measurements in vivo, multi-echo experiment in tumors
# Set-up: species or system murine
# Source text: The time to echo in the hetero-nuclear spin echo experiment is 300 ms (see FIG. 3), therefore it is essential that the ^13C resonance has a long T2. We have previously measured transverse relaxation times for [1-^13C] lactate in EL4 lymphoma tumors in vivo at 9.4 T following injection of [1-^13C]pyruvate, see Kettunen, M. I., et al. Magnetization transfer measurements of exchange between hyperpolarized [1-^13C]pyruvate and [1-^13C] lactate in a murine lymphoma. Magn Reson Med 63, 872-880 (2010). […] For lactate (n=8), three components were fitted to the experimental data (FIG. 9), a short T2 component (0.13±0.09 s, 31±21%), a medium T2 component (0.75±0.20 s, 52±16%) and a long T2 component (2.2±0.7 s, 23±15%). Similar multi-exponential behavior has also been reported at 3 T, see Yen, Y., et al. Signal Enhancement in Low-Dose Hyperpolarized 13C Imaging Using Multi-Slice […] Sequence. in Proc Intl Soc Mag Res Med, Vol. 16 890 (Toronto, 2008). Therefore with an echo time of 300 ms, nearly 60% of the total [1-^13C] lactate signal will remain.
# [1] = 9.4 T, following injection of [1-13C]pyruvate, n=8
structure (smiles),measurement,setting,value
"C[C@H](O)[13C](=O)[O-].[Na+] [L-[1-^13C1] lactate, Sodium L-[1-^13C1] lactate]",long T2 component,[1],2.2 ± 0.7 s
same,long T2 component contribution,[1],23±15%
same,medium T2 component,[1],0.75 ± 0.20 s
same,medium T2 component contribution,[1],52±16%
same,short T2 component,[1],0.13 ± 0.09 s
same,short T2 component contribution,[1],31±21%
same,total signal remaining,echo time of 300 ms,~60%
